Measured values: patent publication US20240123070A1, “EPITOPE PEPTIDE OF RAS G13D MUTANT AND T CELL RECEPTOR RECOGNIZING RAS G13D MUTANT” (SHANGHAI GENBASE BIOTECHNOLOGY CO., LTD., priority 2021, published 2024)
Residue numbers refer to the chain shown, from its start.

B1: β97V-A: B8.2.4 TCR point mutant, Vβ-CDR3 97V to A (protein)
TCR alpha: AQKITQTQPGMFVQEKEAVTLDCTYDTSDPSYGLFWYKQPSSGEMIFLIYQGSYDQQNATEGRYSLNFQKARKSANLVISASQLGDSAMYFCAMRERTGTASKLTFGTGTRLQVTLDIQNPEPAVYQLKDPRSQDSTLCLFTDFDSQINVPKTMESGTFITDKTVLDMKAMDSKSNGAIAWSNQTSFTCQDIFKETNATYPSSDVPCDATLTEKSFETDMNLNFQNLSVMGLRILLLKVAGFNLLMTLRLWSS
TCR beta: DVKVTQSSRYLVKRTGEKVFLECVQDMDHENMFWYRQDPGLGLRLIYFSYDVKMKEKGDIPEGYSVSREKKERFSLILESASTNQTSMYLCASSQTAPPQHFGDGTRLSILEDLRNVTPPKVSLFEPSKAEIANKQKATLVCLARGFFPDHVELSWWVNGKEVHSGVSTDPQAYKESNYSYCLSSRLRVSATFWHNPRNHFRCQVQFHGLSEEDKWPEGSPKPVTQNISAEAWGRADCGITSASYQQGVLSATILYEILLGKATLYAVLVSTLVVMAMVKRKNS
B2: β97V-N: B8.2.4 TCR point mutant, Vβ-CDR3 97V to N (protein)
TCR alpha: B1 TCR alpha
TCR beta: B1 TCR beta with A97N
B3: β97V-F: B8.2.4 TCR point mutant, Vβ-CDR3 97V to F (protein)
TCR alpha: B1 TCR alpha
TCR beta: B1 TCR beta with A97F
B4: β97V-I: B8.2.4 TCR point mutant, Vβ-CDR3 97V to I; CDR3β ASSQTIPPQH (protein)
TCR alpha: B1 TCR alpha
TCR beta: B1 TCR beta with A97I
B5: β98P-K: B8.2.4 TCR point mutant, Vβ-CDR3 98P to K (protein)
TCR alpha: B1 TCR alpha
TCR beta: B1 TCR beta with A97V, P98K
B6: β97V-G: B8.2.4 TCR point mutant, Vβ-CDR3 97V to G (protein)
TCR alpha: B1 TCR alpha
TCR beta: B1 TCR beta with A97G
B7: β97V-P: B8.2.4 TCR point mutant, Vβ-CDR3 97V to P (protein)
TCR alpha: B1 TCR alpha
TCR beta: B1 TCR beta with A97P
B8: β98P-N: B8.2.4 TCR point mutant, Vβ-CDR3 98P to N (protein)
TCR alpha: B1 TCR alpha
TCR beta: B1 TCR beta with A97V, P98N
B9: β97V-C: B8.2.4 TCR point mutant, Vβ-CDR3 97V to C (protein)
TCR alpha: B1 TCR alpha
TCR beta: B1 TCR beta with A97C
B10: β98P-I: B8.2.4 TCR point mutant, Vβ-CDR3 98P to I (protein)
TCR alpha: B1 TCR alpha
TCR beta: B1 TCR beta with A97V, P98I
B11: β97V-Q: B8.2.4 TCR point mutant, Vβ-CDR3 97V to Q (protein)
TCR alpha: B1 TCR alpha
TCR beta: B1 TCR beta with A97Q
B12: β97V-S: B8.2.4 TCR point mutant, Vβ-CDR3 97V to S; CDR3β ASSQTSPPQH (protein)
TCR alpha: B1 TCR alpha
TCR beta: B1 TCR beta with A97S
B13: β98P-D: B8.2.4 TCR point mutant, Vβ-CDR3 98P to D; CDR3β ASSQTVDPQH (protein)
TCR alpha: B1 TCR alpha
TCR beta: B1 TCR beta with A97V, P98D
B14: β98P-M: B8.2.4 TCR point mutant, Vβ-CDR3 98P to M; CDR3β ASSQTVMPQH (protein)
TCR alpha: B1 TCR alpha
TCR beta: B1 TCR beta with A97V, P98M
B15: β98P-F: B8.2.4 TCR point mutant, Vβ-CDR3 98P to F; CDR3β ASSQTVFPQH (protein)
TCR alpha: B1 TCR alpha
TCR beta: B1 TCR beta with A97V, P98F
B16: β97V-Y: B8.2.4 TCR point mutant, Vβ-CDR3 97V to Y (protein)
TCR alpha: B1 TCR alpha
TCR beta: B1 TCR beta with A97Y
B17: β97V-R: B8.2.4 TCR point mutant, Vβ-CDR3 97V to R (protein)
TCR alpha: B1 TCR alpha
TCR beta: B1 TCR beta with A97R
B18: β98P-C: B8.2.4 TCR point mutant, Vβ-CDR3 98P to C; CDR3β ASSQTVCPQH (protein)
TCR alpha: B1 TCR alpha
TCR beta: B1 TCR beta with A97V, P98C
B19: β98P-R: B8.2.4 TCR point mutant, Vβ-CDR3 98P to R; CDR3β ASSQTVRPQH (protein)
TCR alpha: B1 TCR alpha
TCR beta: B1 TCR beta with A97V, P98R
B20: β97V-L: B8.2.4 TCR point mutant, Vβ-CDR3 97V to L (protein)
TCR alpha: B1 TCR alpha
TCR beta: B1 TCR beta with A97L
B21: β97V-H: B8.2.4 TCR point mutant, Vβ-CDR3 97V to H (protein)
TCR alpha: B1 TCR alpha
TCR beta: B1 TCR beta with A97H
B22: β97V-W: B8.2.4 TCR point mutant, Vβ-CDR3 97V to W (protein)
TCR alpha: B1 TCR alpha
TCR beta: B1 TCR beta with A97W
B23: β97V-M: B8.2.4 TCR point mutant, Vβ-CDR3 97V to M (protein)
TCR alpha: B1 TCR alpha
TCR beta: B1 TCR beta with A97M
B24: β97V-D: B8.2.4 TCR point mutant, Vβ-CDR3 97V to D (protein)
TCR alpha: B1 TCR alpha
TCR beta: B1 TCR beta with A97D
B25: β98P-A: B8.2.4 TCR point mutant, Vβ-CDR3 98P to A (protein)
TCR alpha: B1 TCR alpha
TCR beta: B1 TCR beta with A97V, P98A
B26: β97V-T: B8.2.4 TCR point mutant, Vβ-CDR3 97V to T; CDR3β ASSQTTPPQH (protein)
TCR alpha: B1 TCR alpha
TCR beta: B1 TCR beta with A97T
B27: β97V-E: B8.2.4 TCR point mutant, Vβ-CDR3 97V to E (protein)
TCR alpha: B1 TCR alpha
TCR beta: B1 TCR beta with A97E
B28: β98P-L: B8.2.4 TCR point mutant, Vβ-CDR3 98P to L; CDR3β ASSQTVLPQH (protein)
TCR alpha: B1 TCR alpha
TCR beta: B1 TCR beta with A97V, P98L
B29: β98P-H: B8.2.4 TCR point mutant, Vβ-CDR3 98P to H; CDR3β ASSQTVHPQH (protein)
TCR alpha: B1 TCR alpha
TCR beta: B1 TCR beta with A97V, P98H
B30: β98P-G: B8.2.4 TCR point mutant, Vβ-CDR3 98P to G; CDR3β ASSQTVGPQH (protein)
TCR alpha: B1 TCR alpha
TCR beta: B1 TCR beta with A97V, P98G
B31: β98P-E: B8.2.4 TCR point mutant, Vβ-CDR3 98P to E; CDR3β ASSQTVEPQH (protein)
TCR alpha: B1 TCR alpha
TCR beta: B1 TCR beta with A97V, P98E
B32: β97V-K: B8.2.4 TCR point mutant, Vβ-CDR3 97V to K (protein)
TCR alpha: B1 TCR alpha
TCR beta: B1 TCR beta with A97K

Tested on: murine TCRβ constant region
Experiment: mTCRβ expression detection on Jurkat-NFAT-Luc cells
Format: cell-based
Details: TCR mutant transduced Jurkat-NFAT-Luc cells

**Q.** Which mTCRβ % does the source give for B1 here?
**A.** Its mTCRβ % is 71.3%.

**Q.** With B2 as the molecule, how does the mTCRβ % read?
**A.** The mTCRβ % was 52.4%.

**Q.** How did the mTCRβ % turn out when B3 was run?
**A.** Its mTCRβ % is 77.2%.

**Q.** B4 was tested. Which mTCRβ % did it give?
**A.** Its mTCRβ % is 69.9%.

**Q.** For B5, which mTCRβ % is on record?
**A.** The mTCRβ % was 63.8%.

**Q.** With B6 as the molecule, how does the mTCRβ % read?
**A.** The mTCRβ % was 74.3%.

**Q.** Which mTCRβ % does the source give for B7 here?
**A.** The mTCRβ % was 53.4%.

**Q.** With B8 as the molecule, how does the mTCRβ % read?
**A.** Its mTCRβ % is 75.8%.

**Q.** With B9 as the molecule, how does the mTCRβ % read?
**A.** The mTCRβ % was 52.6%.

**Q.** B10 was tested. Which mTCRβ % did it give?
**A.** Its mTCRβ % is 66.4%.

**Q.** How did the mTCRβ % turn out when B11 was run?
**A.** Its mTCRβ % is 74.5%.

**Q.** Which mTCRβ % does the source give for B12 here?
**A.** Its mTCRβ % is 72.2%.

**Q.** Which mTCRβ % does the source give for B13 here?
**A.** The mTCRβ % was 82%.

**Q.** How did the mTCRβ % turn out when B14 was run?
**A.** The mTCRβ % was 61.2%.

**Q.** For B15, which mTCRβ % is on record?
**A.** The mTCRβ % was 82.5%.

**Q.** For B16, which mTCRβ % is on record?
**A.** Its mTCRβ % is 36.9%.

**Q.** How did the mTCRβ % turn out when B17 was run?
**A.** The mTCRβ % was 55.2%.

**Q.** How did the mTCRβ % turn out when B18 was run?
**A.** The mTCRβ % was 80.7%.

**Q.** With B19 as the molecule, how does the mTCRβ % read?
**A.** Its mTCRβ % is 78%.

**Q.** How did the mTCRβ % turn out when B20 was run?
**A.** Its mTCRβ % is 63.8%.

**Q.** For B21, which mTCRβ % is on record?
**A.** Its mTCRβ % is 53.6%.

**Q.** With B22 as the molecule, how does the mTCRβ % read?
**A.** The mTCRβ % was 74.5%.

**Q.** With B23 as the molecule, how does the mTCRβ % read?
**A.** Its mTCRβ % is 28%.

**Q.** B24 was tested. Which mTCRβ % did it give?
**A.** Its mTCRβ % is 65.6%.

**Q.** B25 was tested. Which mTCRβ % did it give?
**A.** The mTCRβ % was 67.6%.

**Q.** For B26, which mTCRβ % is on record?
**A.** Its mTCRβ % is 64.7%.

**Q.** How did the mTCRβ % turn out when B27 was run?
**A.** The mTCRβ % was 78.4%.

**Q.** How did the mTCRβ % turn out when B28 was run?
**A.** The mTCRβ % was 72.5%.

**Q.** For B29, which mTCRβ % is on record?
**A.** The mTCRβ % was 72.9%.

**Q.** B30 was tested. Which mTCRβ % did it give?
**A.** The mTCRβ % was 81.5%.

**Q.** Which mTCRβ % does the source give for B31 here?
**A.** The mTCRβ % was 60.8%.

**Q.** With B32 as the molecule, how does the mTCRβ % read?
**A.** Its mTCRβ % is 65.5%.
